For at least one compound, name, drawing or mass did not settle the structure.
Test system: cells isolated from seminiferous tubules of ICR immature (7-day-old) mice
Assay: Effect of hormones and retinoic acid on development of mouse spermatogenesis in vitro in methylcellulose culture system (qPCR of markers)
Type: cell-based
Details: 10^−8 M, 10^−7 M or 10^−6 M added after two weeks of culture, examined after total four weeks, normal immature mice

CC1=C(/C=C/C(C)=C/C=C/C(C)=C/C(=O)O)C(C)(C)CCC1 [retinoic acid]
expression of the meiotic/post-meiotic marker ACROSIN: increased | expression of the pre-meiotic marker VASA: increased
